US9949961B2, “Agent for the prophylaxis and/or treatment of neoplastic diseases” (priority 2013, dated 2018)

System: hepatic tumors induced by DENA
Experiment: Preventive effect on hepatic neoplasms induced by N-diethyl nitrosamine (DENA) in rats
Type: in vivo, male Wistar rats
Conditions: 25 mg/kg/day in drinking water; DENA 30 mg/kg/week i.p.; at autopsy
Procedure: The efficacy of preventive effects of Products 1 and 2 in relation to hepatic neoplasms was shown in the experiment on male Wistar rats which were intraperitoneally administered with chemical carcinogen-N-diethyl nitrosamine (DENA) (Nitrosodiethylamin (N—N)). The nature of the invention is explained with the execution example.
To solve the task, 3 groups of male Wistar rats weighing 150-200 g were formed, 16 in each. Rats of the control group were administered intraperitoneally with DENA in dose 30 mg/kg/week. The dosage was administered in 2 doses: Monday and Thursday. The animals of test groups were similarly administered with DENA. Rats of test groups took drinking water in addition to Products 1 and 2 assuming that they took 25 mg/kg of body weight/day with water. The animals started taking the products 3 weeks prior administration of N-diethyl nitrosamine to develop protective background in animal body and subsequently for 2.5 months.
During the experiment, weight of rats was controlled. After autopsy of animals, liver was weighted, tumors were visually counted on its surface and photographed.

Work on O=C1CSC(=S)N1CCc1ccncc1 [Product 2] yielded a Weight of liver of 7.0 ± 0.15 g.
O=C1CSC(=S)N1CCc1ccccc1 [Product 1] was tested, and the Weight of liver was 7.4 ± 0.19 g.
